Assay results reported in the supplement of paper PMC5949888.
± gives the standard deviation of the averaged measurements. Most values lie at the floor of the assay. Slopes are relative: functional sequences can read slightly below zero.

System: Saccharomyces cerevisiae PS128 hsf1 delta, HSF1(1-493) fusion
Assay: growth estimate (transactivation domain function in HSF1 fusion, heat-shock survival) (a.u. (slope of normalised read count over time)); higher = stronger growth at 37°C, i.e. more transactivation activity
Conditions: library: random library
Method: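 Random 60-nt DNA library encoding peptides of up to 20 aa, fused to the C-terminus of yeast HSF1 residues 1-493 (C-terminal TAD deleted) and expressed from the native HSF1 promoter on a CEN plasmid in hsf1-deleted S. cerevisiae PS128. Cells were selected at 37°C on -trp 5-FOA plates for 0, 2, 4, 6 and 8 days and amplicons were sequenced. Growth estimate is the slope of a robust linear fit of total-sum-normalised read counts (normalised to the first time point) over time, using at least 2 replicates. Sequences are classed functional (TAD activity) above a threshold of -0.13, set from stop-codon control sequences.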

With GTSVKHLWGAKSFVCIPKHQ as the substance, how does the growth estimate read?
Its growth estimate is under -0.25.

Which growth estimate does the source give for GTTIVALTAIARGRSTTLPT here?
The growth estimate was under -0.25.

How did the growth estimate turn out when GTTPGGFIEGIPWDDPS was run?
Its growth estimate is under -0.25.

GTTSKPHTRAMRHSLGSL was tested. Which growth estimate did it give?
Its growth estimate is under -0.25.

How did the growth estimate turn out when GTVCVCKLGWYREEGQFMSS was run?
Its growth estimate is under -0.25.

How did the growth estimate turn out when GTVE was run?
The growth estimate was under -0.25.

With GTVILPFRVQWVRGRIRRPP as the substance, how does the growth estimate read?
The growth estimate was under -0.25.

With GTVPSRGACLSWGGKIMFVS as the substance, how does the growth estimate read?
The growth estimate was under -0.25.

How did the growth estimate turn out when GTVRGY was run?
The growth estimate was under -0.25.

How did the growth estimate turn out when GTVTVYRASLTYEDTSETHT was run?
The growth estimate was under -0.25.

For GTVW, which growth estimate is on record?
Its growth estimate is under -0.25.

How did the growth estimate turn out when GTYILGLTQLLRTGFTSSGH was run?
Its growth estimate is under -0.25.

GTYLPCGRRLCKDKGRPIMG was tested. Which growth estimate did it give?
Its growth estimate is under -0.25.

GTYRSVCSGGVASKRY was tested. Which growth estimate did it give?
The growth estimate was under -0.25.

For GTYVVLFE, which growth estimate is on record?
Its growth estimate is under -0.25.

Which growth estimate does the source give for GVAANYAWFDTSCILKSART here?
Its growth estimate is under -0.25.

With GVALWTIDLPHFRAQVRGRL as the substance, how does the growth estimate read?
Its growth estimate is under -0.25.

For GVARVEFRPELFLSFLE, which growth estimate is on record?
The growth estimate was under -0.25.

With GVCCSRARTVGDLGRISLKG as the substance, how does the growth estimate read?
Its growth estimate is under -0.25.

For GVCRRYPRRMVVLYVPTHHP, which growth estimate is on record?
The growth estimate was under -0.25.

Which growth estimate does the source give for GVDARVRVQGRGLAVLCQRL here?
Its growth estimate is under -0.25.

With GVDGAVESNAWCLHLGFWRE as the substance, how does the growth estimate read?
Its growth estimate is under -0.25.

With GVDRVPGTIPVAVRLDGAAN as the substance, how does the growth estimate read?
The growth estimate was under -0.25.

With GVDSN as the substance, how does the growth estimate read?
Its growth estimate is under -0.25.

For GVEESSGWGVIYLARIGLPN, which growth estimate is on record?
Its growth estimate is under -0.25.

For GVGRTYI, which growth estimate is on record?
The growth estimate was under -0.25.

For GVGVGARDRVPCALGLSWRE, which growth estimate is on record?
Its growth estimate is under -0.25.

GVGVPSATGSL was tested. Which growth estimate did it give?
Its growth estimate is under -0.25.

How did the growth estimate turn out when GVHSNQKRGISPRIQGTPPT was run?
The growth estimate was under -0.25.

For GVIARCSRGGGSLDDDTPNS, which growth estimate is on record?
Its growth estimate is -0.25.

How did the growth estimate turn out when GVIL was run?
Its growth estimate is under -0.25.

GVITIPNIVVRDYVTLVSFY was tested. Which growth estimate did it give?
The growth estimate was under -0.25.

For GVKFDKTSGPLGVHRPACLL, which growth estimate is on record?
The growth estimate was under -0.25.

GVKLGHF was tested. Which growth estimate did it give?
Its growth estimate is under -0.25.

Which growth estimate does the source give for GVKMT here?
The growth estimate was -0.246.

For GVKY, which growth estimate is on record?
The growth estimate was under -0.25.

How did the growth estimate turn out when GVLATLGCSLYYYERAHAMR was run?
The growth estimate was under -0.25.

How did the growth estimate turn out when GVLDDKSFTQIGRAAGELRD was run?
Its growth estimate is under -0.25.

Which growth estimate does the source give for GVLDRRSALTAPRINSARDT here?
The growth estimate was under -0.25.

Which growth estimate does the source give for GVLSIQLIIL here?
The growth estimate was under -0.25.

For GVLTFRSEVLKIG, which growth estimate is on record?
Its growth estimate is under -0.25.

With GVLVLGSGRRLKKVYVWSSV as the substance, how does the growth estimate read?
Its growth estimate is under -0.25.

How did the growth estimate turn out when GVNGSPGNFGLVKPYATLLA was run?
The growth estimate was under -0.25.

With GVNNPCD as the substance, how does the growth estimate read?
Its growth estimate is under -0.25.

With GVNTYGPATAIIRIS as the substance, how does the growth estimate read?
Its growth estimate is under -0.25.

GVNVFRINVK was tested. Which growth estimate did it give?
The growth estimate was under -0.25.

GVPPNATHVDHHGTQGTVVS was tested. Which growth estimate did it give?
The growth estimate was under -0.25.

Which growth estimate does the source give for GVPSRP here?
Its growth estimate is under -0.25.

GVQSINRSGRGRPVSEAGSA was tested. Which growth estimate did it give?
The growth estimate was under -0.25.

GVQSRALG was tested. Which growth estimate did it give?
The growth estimate was under -0.25.

With GVRSRQNLGDPFGSRNRS as the substance, how does the growth estimate read?
Its growth estimate is under -0.25.

How did the growth estimate turn out when GVRV was run?
The growth estimate was -0.204 ± 0.065.

GVS was tested. Which growth estimate did it give?
The growth estimate was under -0.25.

Which growth estimate does the source give for GVSAYP here?
The growth estimate was under -0.25.

GVSCLHIYEQALSQECASTS was tested. Which growth estimate did it give?
Its growth estimate is under -0.25.

GVSKVGNIPRIGARGFAAVS was tested. Which growth estimate did it give?
The growth estimate was under -0.25.

How did the growth estimate turn out when GVSMPTVLIPP was run?
The growth estimate was under -0.25.

How did the growth estimate turn out when GVSQWFVSSISKRVIRGARS was run?
Its growth estimate is under -0.25.

For GVSRC, which growth estimate is on record?
The growth estimate was under -0.25.

For GVSRVRSGKRAAVTARYVCH, which growth estimate is on record?
The growth estimate was under -0.25.

Which growth estimate does the source give for GVTG here?
The growth estimate was under -0.25.

Which growth estimate does the source give for GVTSLRR here?
The growth estimate was under -0.25.

For GVTVTGVTQWTSP, which growth estimate is on record?
The growth estimate was under -0.25.

With GVVLVWTSIAVAD as the substance, how does the growth estimate read?
Its growth estimate is under -0.25.

Which growth estimate does the source give for GVVQRVICSGVSQERL here?
Its growth estimate is under -0.25.

With GVWGRI as the substance, how does the growth estimate read?
Its growth estimate is under -0.25.

GVWRWFIKGSNNDYYLETTA was tested. Which growth estimate did it give?
Its growth estimate is -0.217.

For GVYEEGEGSCSSV, which growth estimate is on record?
The growth estimate was -0.203.

For GVYIKAAPMIASVSILRWTV, which growth estimate is on record?
Its growth estimate is under -0.25.

How did the growth estimate turn out when GVYNDG was run?
The growth estimate was under -0.25.

How did the growth estimate turn out when GVYRWRDHRAYTRLVFQ was run?
The growth estimate was under -0.25.

Which growth estimate does the source give for GVYSPPLQ here?
Its growth estimate is under -0.25.

With GWALSRMPRTYMKRVPI as the substance, how does the growth estimate read?
The growth estimate was under -0.25.

How did the growth estimate turn out when GWANNRRDLQ was run?
The growth estimate was under -0.25.

Which growth estimate does the source give for GWCCITD here?
The growth estimate was under -0.25.

Which growth estimate does the source give for GWCINEISR here?
The growth estimate was under -0.25.

GWCVQKW was tested. Which growth estimate did it give?
The growth estimate was under -0.25.

GWEDLT was tested. Which growth estimate did it give?
Its growth estimate is under -0.25.

With GWEWGFGD as the substance, how does the growth estimate read?
Its growth estimate is 0.0785.

For GWGFLG, which growth estimate is on record?
The growth estimate was under -0.25.

For GWGTGTCTWLSVFRHSRLVR, which growth estimate is on record?
Its growth estimate is under -0.25.

Which growth estimate does the source give for GWITSGVRRDPQPLSD here?
Its growth estimate is under -0.25.

With GWKSFNPETGAPSKSLETRG as the substance, how does the growth estimate read?
Its growth estimate is under -0.25.

Which growth estimate does the source give for GWLGCLPSCGRGFCFRRLSK here?
The growth estimate was under -0.25.

For GWLLRGRKIQTD, which growth estimate is on record?
Its growth estimate is under -0.25.

How did the growth estimate turn out when GWLNRHGLHCSLDRFARGER was run?
Its growth estimate is under -0.25.

Which growth estimate does the source give for GWPGQEIKGKGTSRGQYTSF here?
The growth estimate was under -0.25.

Which growth estimate does the source give for GWPMLWIARS here?
Its growth estimate is under -0.25.

Which growth estimate does the source give for GWPQSVSIGAPSALIRV here?
The growth estimate was under -0.25.

With GWRRRTDCCITCTCVERRLV as the substance, how does the growth estimate read?
Its growth estimate is under -0.25.

With GWRVGGTCIGKRIRRSSSEP as the substance, how does the growth estimate read?
Its growth estimate is under -0.25.

For GWVGNKAHLF, which growth estimate is on record?
Its growth estimate is under -0.25.

For GWVH, which growth estimate is on record?
The growth estimate was under -0.25.

Which growth estimate does the source give for GWWATLGRFQSR here?
The growth estimate was under -0.25.

For GYCRPRGARATD, which growth estimate is on record?
Its growth estimate is under -0.25.
